Data reported in patent US12630600B2 (MEDIMMUNE LIMITED, priority 2022, dated 2026).
At least one peptide structure holds a part that was inferred or is arguable (an end, a ring closure or a residue). Starred links: 1 amine or outer side, 2 acyl side, 3 side chain; linkers in the order of their positions; H or OH if unused. Non-standard residues stand in square brackets, D forms with d. Residues, ends and D or L forms follow the SMILES beside them. Groups on a side chain read outwards from the residue. *: point of attachment. C18 diacid = O=C(O)CCCCCCCCCCCCCCCCC(=O)*; γGlu = O=C(O)[C@H](CCC(=O)[*:2])N[*:1]; αMeF = C[C@](N)(Cc1ccccc1)C(=O)O; AEEA = NCCOCCOCC(=O)O; Aib = CC(C)(N)C(=O)O

Columns and labels:
[1] = tested on: GLP-1R knockout mice; assay: Glucose change in GLP-1R knockout mice; format: in vivo, mouse; conditions: GLP-1R KO mice, s.c., somatostatin pretreatment 30 min prior to cpd
Protocol: (§1) They acclimated for a minimum of ˜1-2 weeks, and mice were sorted into groups (n=4-8/group) based on body weight. On day of study, mice were fasted briefly for 2 hrs prior to study start. In some studies, mice were pre-treated with octreotide (BaChem, 10 mg/kg) at 30 minutes prior to peptide injection. Glucose was measured via glucometer at various timepoints including −30 min (prior to octreotide when used in studies), 0 min (before peptide dose), 30, 60, 120, 180, 240, and 360 minutes. Since these studies are acute in nature, mice were re-used for multiple studies (no more than 3) and always allowed at least a minimum wash-out period of 1 week.

[2] = tested on: Male C57Bl/6 mice; assay: Mouse acute food intake study; format: in vivo; conditions: s.c., dose 10 nmol/kg, food intake at 24 h vs vehicle
Protocol: Male C57Bl/6 mice obtained from Jackson Laboratories or Charles River at 8-9 weeks of age and were housed one per cage in BioDaq (Research Diets) cages. Mice were placed on Alpha Dri bedding, standard chow diet (Envigo, 2018) and given water pouches. Mice were allowed to acclimate for 1-2 weeks. Body weight was measured to ensure appropriate acclimation. After acclimation, mice were sham dosed a minimum of 2 times prior to initiation of food intake study. On study day, mice were placed in clean cage bottoms, weighed, and fasted for 6-8 hours. Mice were sorted into groups based on average 24-hour food intake data and body weight. 1-2 hours prior to lights out, mice were dosed subcutaneously with one vehicle or test peptide dissolved in an appropriate vehicle at 5 mL/kg. Mice were left undisturbed and allowed access to food and water for 48 hours. Automated food intake was monitored in the BioDaq system was monitored during this time. Discrete food intake data was exported into MS Excel from which cumulative food intake data was generated and analyzed.

[3] = tested on: wildtype (WT) mice; assay: Glucose change in wildtype mice; format: in vivo, mouse; conditions: s.c., somatostatin pretreatment 30 min prior to cpd
Protocol: as §1, with “[…] and wildtype (WT) mice at 8-14 weeks of age were singly housed on standard chow diet (Envigo, 2918) and automatic water. They” for “They”

## CC[C@H](C)[C@H](NC(=O)[C@H](Cc1c[nH]c2ccccc12)NC(=O)[C@H](CCCCNC(=O)COCCOCCNC(=O)COCCOCCNC(=O)CC[C@H](NC(=O)CCCCCCCCCCCCCCCCC(=O)O)C(=O)O)NC(=O)[C@@H](NC(=O)[C@H](Cc1ccccc1)NC(=O)[C@H](CC(=O)O)NC(=O)[C@H](CCC(N)=O)NC(=O)[C@H](C)NC(=O)[C@H](C)NC(=O)[C@H](CCC(N)=O)NC(=O)[C@H](CO)NC(=O)[C@H](CC(=O)O)NC(=O)[C@H](CC(C)C)NC(=O)[C@](C)(Cc1ccccc1)NC(=O)[C@H](CCCCN)NC(=O)[C@H](CO)NC(=O)[C@@H](NC(=O)[C@H](CC(=O)O)NC(=O)[C@H](CO)NC(=O)[C@@H](NC(=O)[C@](C)(Cc1ccccc1)NC(=O)[C@H](CO)NC(=O)CNC(=O)[C@H](Cc1c[nH]cn1)NC(=O)C(C)(C)NC(=O)[C@@H](N)Cc1c[nH]cn1)[C@@H](C)O)C(C)C)C(C)C)C(=O)N[C@@H](C)C(=O)N[C@@H](CC(N)=O)C(=O)N[C@H](C(N)=O)[C@@H](C)O [Peptide 349] (H-H[Aib]HGS[αMeF]TSDVSK[αMeF]LDSQAAQDFVK([AEEA-AEEA-γGlu-C18 diacid])WIANT-NH2; N-terminus assumed)
[1]; 10 nmol/kg
  GLP-1R KO % glucose change 120 min: 27.8%
[1]; 30 nmol/kg
  GLP-1R KO % glucose change 120 min: 100.2%
[2]
  24 hr % Vehicle Food Intake: 79.9%
[3]; 10 nmol/kg
  WT % glucose change 120 min: 4.9%
[3]; 30 nmol/kg
  WT % glucose change 120 min: −17.3%
